Results are given in words; binding and its absence hold for the method and conditions named. In cells and extracts the contact can be indirect. Some entries that bind do so weakly or less than the wild type.

Protein sequences, listed by entry. Tags and fused reporters are not part of them. Lines headed by an entry give the natural chain unless they say otherwise; changes in a name come on top. Residues count along the entry.
UniProt Q15751: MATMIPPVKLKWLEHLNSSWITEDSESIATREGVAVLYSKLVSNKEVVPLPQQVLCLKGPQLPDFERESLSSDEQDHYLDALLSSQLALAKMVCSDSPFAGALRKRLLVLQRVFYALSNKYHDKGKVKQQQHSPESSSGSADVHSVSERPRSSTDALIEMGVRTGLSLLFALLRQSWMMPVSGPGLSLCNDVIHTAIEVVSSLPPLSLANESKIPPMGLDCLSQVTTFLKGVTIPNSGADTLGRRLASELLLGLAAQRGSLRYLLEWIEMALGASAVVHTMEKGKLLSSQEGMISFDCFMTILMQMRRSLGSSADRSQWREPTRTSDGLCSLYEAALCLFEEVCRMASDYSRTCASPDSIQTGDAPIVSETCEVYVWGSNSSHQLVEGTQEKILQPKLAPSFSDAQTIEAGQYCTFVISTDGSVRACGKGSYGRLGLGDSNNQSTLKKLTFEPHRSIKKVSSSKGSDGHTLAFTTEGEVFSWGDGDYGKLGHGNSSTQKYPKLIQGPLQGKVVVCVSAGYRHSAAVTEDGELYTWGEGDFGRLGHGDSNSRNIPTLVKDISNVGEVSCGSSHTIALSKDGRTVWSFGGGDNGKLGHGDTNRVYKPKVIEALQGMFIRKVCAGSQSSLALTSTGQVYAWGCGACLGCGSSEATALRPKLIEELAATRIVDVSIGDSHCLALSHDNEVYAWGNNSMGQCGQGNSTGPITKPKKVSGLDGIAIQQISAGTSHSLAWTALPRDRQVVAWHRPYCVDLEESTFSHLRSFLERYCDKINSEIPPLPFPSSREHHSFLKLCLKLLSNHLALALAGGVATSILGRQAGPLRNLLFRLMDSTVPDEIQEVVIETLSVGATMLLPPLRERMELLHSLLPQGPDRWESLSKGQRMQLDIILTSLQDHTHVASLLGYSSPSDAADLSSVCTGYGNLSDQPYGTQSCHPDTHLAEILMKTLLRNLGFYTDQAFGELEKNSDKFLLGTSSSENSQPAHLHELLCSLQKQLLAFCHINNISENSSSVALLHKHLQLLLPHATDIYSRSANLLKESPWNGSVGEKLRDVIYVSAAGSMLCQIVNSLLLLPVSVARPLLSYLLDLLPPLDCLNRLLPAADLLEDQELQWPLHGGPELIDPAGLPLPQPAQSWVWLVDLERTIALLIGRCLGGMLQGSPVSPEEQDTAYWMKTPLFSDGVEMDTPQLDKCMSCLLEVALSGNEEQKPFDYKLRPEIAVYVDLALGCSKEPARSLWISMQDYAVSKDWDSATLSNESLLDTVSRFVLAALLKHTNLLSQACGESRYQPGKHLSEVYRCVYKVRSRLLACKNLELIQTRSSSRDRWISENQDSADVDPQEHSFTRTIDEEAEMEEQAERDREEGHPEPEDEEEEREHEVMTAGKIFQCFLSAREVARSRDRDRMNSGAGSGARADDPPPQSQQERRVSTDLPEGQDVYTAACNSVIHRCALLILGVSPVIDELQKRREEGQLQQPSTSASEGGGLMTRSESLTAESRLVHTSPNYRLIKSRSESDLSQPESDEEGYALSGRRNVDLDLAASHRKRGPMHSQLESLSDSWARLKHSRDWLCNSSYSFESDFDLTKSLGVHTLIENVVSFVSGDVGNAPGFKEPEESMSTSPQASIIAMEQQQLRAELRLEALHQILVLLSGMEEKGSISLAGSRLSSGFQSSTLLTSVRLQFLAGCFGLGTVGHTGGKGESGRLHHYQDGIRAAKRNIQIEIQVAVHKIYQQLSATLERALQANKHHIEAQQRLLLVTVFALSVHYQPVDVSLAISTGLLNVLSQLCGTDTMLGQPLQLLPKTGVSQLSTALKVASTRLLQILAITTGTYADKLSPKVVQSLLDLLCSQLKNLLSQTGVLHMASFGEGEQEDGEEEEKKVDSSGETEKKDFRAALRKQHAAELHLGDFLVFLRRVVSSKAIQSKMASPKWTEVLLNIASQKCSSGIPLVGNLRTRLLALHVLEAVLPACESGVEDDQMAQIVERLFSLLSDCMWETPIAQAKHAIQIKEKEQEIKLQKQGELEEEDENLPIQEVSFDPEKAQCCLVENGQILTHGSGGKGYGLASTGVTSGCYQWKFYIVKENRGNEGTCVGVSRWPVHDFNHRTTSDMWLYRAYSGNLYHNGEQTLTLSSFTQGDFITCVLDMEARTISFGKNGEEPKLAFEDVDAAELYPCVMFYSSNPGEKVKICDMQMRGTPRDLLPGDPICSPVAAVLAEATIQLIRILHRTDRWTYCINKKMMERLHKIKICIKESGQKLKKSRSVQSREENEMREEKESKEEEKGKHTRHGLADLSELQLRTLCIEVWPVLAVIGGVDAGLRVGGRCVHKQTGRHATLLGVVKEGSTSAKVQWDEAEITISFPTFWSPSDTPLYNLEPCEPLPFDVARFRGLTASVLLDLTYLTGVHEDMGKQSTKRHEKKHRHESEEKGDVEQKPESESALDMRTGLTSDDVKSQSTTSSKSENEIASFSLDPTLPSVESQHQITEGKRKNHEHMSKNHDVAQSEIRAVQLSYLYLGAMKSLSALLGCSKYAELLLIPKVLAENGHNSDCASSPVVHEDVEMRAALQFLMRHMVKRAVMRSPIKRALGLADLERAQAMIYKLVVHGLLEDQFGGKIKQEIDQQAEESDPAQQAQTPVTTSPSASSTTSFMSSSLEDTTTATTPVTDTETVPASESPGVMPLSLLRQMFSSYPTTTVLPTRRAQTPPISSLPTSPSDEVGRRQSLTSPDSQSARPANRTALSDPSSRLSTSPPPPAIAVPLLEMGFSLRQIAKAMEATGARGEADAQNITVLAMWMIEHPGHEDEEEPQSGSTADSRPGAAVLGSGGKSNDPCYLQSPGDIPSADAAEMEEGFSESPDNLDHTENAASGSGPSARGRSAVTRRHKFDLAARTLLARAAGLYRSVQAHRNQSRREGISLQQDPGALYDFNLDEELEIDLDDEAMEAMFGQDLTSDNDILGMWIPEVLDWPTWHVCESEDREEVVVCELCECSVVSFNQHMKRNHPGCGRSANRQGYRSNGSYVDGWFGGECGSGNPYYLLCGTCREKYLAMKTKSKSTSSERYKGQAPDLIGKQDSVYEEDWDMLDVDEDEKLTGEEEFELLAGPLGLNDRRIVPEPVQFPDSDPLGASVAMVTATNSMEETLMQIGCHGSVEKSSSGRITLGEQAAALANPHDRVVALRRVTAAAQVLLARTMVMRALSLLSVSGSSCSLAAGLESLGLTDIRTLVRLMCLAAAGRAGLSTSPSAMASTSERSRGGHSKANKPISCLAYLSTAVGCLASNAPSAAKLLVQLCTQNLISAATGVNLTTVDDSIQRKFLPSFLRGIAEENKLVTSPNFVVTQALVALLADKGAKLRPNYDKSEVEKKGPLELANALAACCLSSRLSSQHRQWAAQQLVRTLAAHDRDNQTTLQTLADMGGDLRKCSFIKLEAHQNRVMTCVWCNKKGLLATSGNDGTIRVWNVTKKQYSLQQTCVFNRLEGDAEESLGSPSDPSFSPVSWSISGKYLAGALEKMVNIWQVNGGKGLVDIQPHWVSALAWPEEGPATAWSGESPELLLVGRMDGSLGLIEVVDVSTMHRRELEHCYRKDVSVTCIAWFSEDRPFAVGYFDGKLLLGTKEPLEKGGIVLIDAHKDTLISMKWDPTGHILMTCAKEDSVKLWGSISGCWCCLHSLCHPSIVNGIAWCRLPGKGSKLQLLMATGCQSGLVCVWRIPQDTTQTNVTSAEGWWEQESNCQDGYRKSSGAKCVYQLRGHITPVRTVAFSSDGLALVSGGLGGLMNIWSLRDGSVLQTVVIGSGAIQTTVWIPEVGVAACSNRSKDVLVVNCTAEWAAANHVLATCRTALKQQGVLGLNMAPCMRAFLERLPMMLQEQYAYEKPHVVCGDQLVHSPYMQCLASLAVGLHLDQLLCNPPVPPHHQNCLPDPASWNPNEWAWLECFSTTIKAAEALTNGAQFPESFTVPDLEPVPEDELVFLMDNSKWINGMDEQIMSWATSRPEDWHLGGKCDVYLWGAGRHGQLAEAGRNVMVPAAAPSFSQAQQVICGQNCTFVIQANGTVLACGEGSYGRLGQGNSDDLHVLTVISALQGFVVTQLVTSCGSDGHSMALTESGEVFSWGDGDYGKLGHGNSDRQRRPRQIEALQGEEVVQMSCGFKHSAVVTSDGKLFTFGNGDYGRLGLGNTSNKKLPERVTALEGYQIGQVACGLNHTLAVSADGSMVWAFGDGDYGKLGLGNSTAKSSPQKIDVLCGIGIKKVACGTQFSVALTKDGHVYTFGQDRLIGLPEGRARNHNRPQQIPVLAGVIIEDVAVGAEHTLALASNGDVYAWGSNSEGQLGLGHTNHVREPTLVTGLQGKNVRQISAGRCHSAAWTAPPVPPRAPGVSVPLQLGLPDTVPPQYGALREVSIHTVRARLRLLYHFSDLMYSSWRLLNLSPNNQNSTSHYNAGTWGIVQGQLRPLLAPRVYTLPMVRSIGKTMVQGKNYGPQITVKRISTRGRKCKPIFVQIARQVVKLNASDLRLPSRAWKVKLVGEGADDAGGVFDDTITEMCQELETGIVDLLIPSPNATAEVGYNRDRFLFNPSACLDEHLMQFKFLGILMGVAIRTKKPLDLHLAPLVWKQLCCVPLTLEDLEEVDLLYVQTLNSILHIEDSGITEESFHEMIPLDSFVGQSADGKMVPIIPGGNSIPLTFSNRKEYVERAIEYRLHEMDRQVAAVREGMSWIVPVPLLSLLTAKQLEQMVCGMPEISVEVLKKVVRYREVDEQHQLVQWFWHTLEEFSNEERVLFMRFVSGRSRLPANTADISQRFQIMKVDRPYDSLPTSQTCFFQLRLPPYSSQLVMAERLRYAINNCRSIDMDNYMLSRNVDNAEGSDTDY
GFP-HERC1 (1-2958): residues 1-2958 of Q15751
GFP-HERC1 (1-1334): residues 1-1334 of Q15751
GFP-HERC1 (1-412): residues 1-412 of Q15751
UniProt P15056: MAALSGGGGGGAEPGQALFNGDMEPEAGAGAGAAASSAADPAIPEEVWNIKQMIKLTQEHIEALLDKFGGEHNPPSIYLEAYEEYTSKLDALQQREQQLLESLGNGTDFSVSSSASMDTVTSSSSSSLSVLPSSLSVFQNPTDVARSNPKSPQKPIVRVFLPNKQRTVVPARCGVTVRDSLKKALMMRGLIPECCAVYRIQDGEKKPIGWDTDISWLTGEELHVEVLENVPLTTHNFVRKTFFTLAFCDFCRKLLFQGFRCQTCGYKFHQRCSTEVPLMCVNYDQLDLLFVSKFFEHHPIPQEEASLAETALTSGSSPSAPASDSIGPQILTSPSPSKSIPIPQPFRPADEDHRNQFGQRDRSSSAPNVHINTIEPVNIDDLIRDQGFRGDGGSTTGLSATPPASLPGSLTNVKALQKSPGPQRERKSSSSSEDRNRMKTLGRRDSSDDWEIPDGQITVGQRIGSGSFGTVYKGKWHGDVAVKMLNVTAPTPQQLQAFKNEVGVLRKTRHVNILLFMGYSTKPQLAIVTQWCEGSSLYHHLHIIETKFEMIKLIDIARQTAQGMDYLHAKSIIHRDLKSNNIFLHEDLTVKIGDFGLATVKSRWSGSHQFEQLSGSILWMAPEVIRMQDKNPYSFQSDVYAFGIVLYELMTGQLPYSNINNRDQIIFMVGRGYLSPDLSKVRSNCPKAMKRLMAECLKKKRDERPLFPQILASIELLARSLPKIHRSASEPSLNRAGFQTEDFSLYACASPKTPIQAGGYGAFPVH

Assay [1] addresses HERC1 (E3 ubiquitin ligase HERC1), endogenous human (human (endogenous in HEK-293T and HeLa)) (UniProt Q15751). Briefly: co-IP; supernatants of HEK-293T lysates (untransfected, transfected with C-RAF-GFP, or serum-deprived overnight and stimulated with 120 ng/ml EGF for 5 min) incubated with anti-HERC1 polyclonal antibody Bvg6 or pre-immune serum 2 h at 4°C, protein A-Sepharose 1 h, four washes in NP40 buffer (50 mM Tris-HCl pH 7.5, 150 mM NaCl, 50 mM NaF, 0.5% NP40), immunoblot. For orientation: In western blotting, separated proteins are transferred to a membrane and probed.

Assay [2] has the same target. The assay is described as follows: co-IP; supernatants of HeLa cell lysates immunoprecipitated with anti-HERC1 antibodies or pre-immune serum, protein A-Sepharose, NP40 buffer, immunoblot.
Assay [3] addresses GFP-HERC1 (1-1334) (human) (UniProt Q15751). The assay is described as follows: pull-down; lysates of HEK-293T cells transfected with GFP or GFP-HERC1 fusion constructs incubated with GFP-TrapA beads 2 h at 4°C, four washes in NP40 buffer; endogenous C-RAF detected by immunoblot.
Assay [4] addresses GFP-HERC1 (1-2958) (human) (UniProt Q15751). The assay is described as above.
Assay [5] addresses GFP-HERC1 (1-412) (human) (UniProt Q15751). The description is as above.
Assay [6] has as its target HERC1, endogenous rat (rat (endogenous in rat liver)). The assay is described as follows: co-IP; supernatants of rat liver lysates immunoprecipitated with anti-HERC1 antibodies or pre-immune serum, protein A-Sepharose, NP40 buffer, immunoblot.
For assay [7], the target named is GFP-C-RAF (301-648) (human) (UniProt P04049). The assay is described as follows: pull-down; lysates of HEK-293T cells co-transfected with myc-HERC1 (1-1413) and GFP or GFP-C-RAF fusion constructs incubated with GFP-TrapA beads 2 h at 4°C, four washes in NP40 buffer; immunoblot.

Take “B-RAF, endogenous human (from UniProt P15056 1-766)”: the binding result in assay [1] is “binds”.
With “C-RAF, endogenous human (from UniProt P04049 1-648)”, the binding result in assay [2], in assay [3], in assay [4], in assay [5] and in assay [1] was “binds” throughout.
Regarding “C-RAF, endogenous rat (from UniProt P11345 1-648)”, the binding entry in assay [6] is recorded as “binds”.
With C-RAF-GFP (from UniProt P04049 1-648), the binding result in assay [1] is reported as “binds”.
Consider “myc-HERC1 (1-1413) (from UniProt Q15751 1-1413) (domain or fragment)”, for which, in assay [7], the binding result is reported as “binds”.
